# Assay results from PubChem BioAssay AID504810 (National Center for Advancing Translational Sciences (NCATS), 2011).
# Sequences of proteins named here, by UniProt entry; tags and fusion partners are left off.
# UniProt P16473, whole entry, looked up: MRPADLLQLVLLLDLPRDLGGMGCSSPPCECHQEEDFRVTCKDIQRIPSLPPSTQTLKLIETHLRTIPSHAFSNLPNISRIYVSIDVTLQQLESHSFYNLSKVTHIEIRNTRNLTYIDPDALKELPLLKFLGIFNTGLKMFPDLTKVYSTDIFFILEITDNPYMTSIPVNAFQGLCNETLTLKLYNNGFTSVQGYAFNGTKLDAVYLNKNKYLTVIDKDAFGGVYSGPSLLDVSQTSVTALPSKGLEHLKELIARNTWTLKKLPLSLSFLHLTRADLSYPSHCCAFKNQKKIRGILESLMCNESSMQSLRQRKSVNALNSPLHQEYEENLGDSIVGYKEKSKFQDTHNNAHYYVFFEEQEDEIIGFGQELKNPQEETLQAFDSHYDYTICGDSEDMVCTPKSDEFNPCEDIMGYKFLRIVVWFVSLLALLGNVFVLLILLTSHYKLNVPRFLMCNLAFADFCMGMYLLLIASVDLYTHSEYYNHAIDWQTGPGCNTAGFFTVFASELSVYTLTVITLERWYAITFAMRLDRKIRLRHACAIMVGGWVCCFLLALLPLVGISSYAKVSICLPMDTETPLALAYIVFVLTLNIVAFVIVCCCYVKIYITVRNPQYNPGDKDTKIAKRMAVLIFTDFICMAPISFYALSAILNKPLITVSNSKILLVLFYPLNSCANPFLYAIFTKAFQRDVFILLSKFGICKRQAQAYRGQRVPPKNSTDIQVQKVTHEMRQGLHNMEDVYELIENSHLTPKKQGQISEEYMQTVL
# Screen size: about 330,000 compounds; about 670 (0.2%) were called active. The shares of active, inactive and inconclusive entries below differ from those in the screen.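 How the source made its calls: active means activity change below a set negative limit, meaning inhibition stronger than a set level (cut at about -70% in these data); inconclusive means activity change between two set negative limits; inactive means the rest.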
# Biological target: Thyrotropin receptor (Homo sapiens) (UniProt P16473)
# Assay: Antagonists of the Thyroid Stimulating Hormone Receptor: HTS campaign
# Settings: TSHR-expressing cells, TSH-stimulated cAMP HTRF, 2 h; at 11.5 µM; hits give low values
# Outline: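 TSHR-expressing cells were treated with compounds, then stimulated with TSH at EC80 (4nM final) for 2 hours at 37 deg C. Cellular cAMP was measured by HTRF competition between lysate cAMP and cAMP-d2 for a cryptate-labelled anti-cAMP antibody.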
# On the % scale 0 is the no-effect control and ±100 the full control effect.
row,SMILES,"activity change, negative = inhibition"
1,CC(Oc1ccc(Br)cc1)C(=O)NC1CCCCCC1 (stereo not drawn),inconclusive: -69.2%
2,COc1ccc(CCNC(=O)c2ccc(Cl)cc2)cc1,inactive: -5.98%
3,COc1cc(C(C)=O)ccc1OCC(=O)Nc1ccc(Cl)c(S(=O)(=O)N2CCOCC2)c1,inconclusive: -58.3%
4,COC(=O)c1ccc(NC(=O)Nc2ccc(F)c(Cl)c2)cc1,inconclusive: -53.6%
5,Nc1nnc(COc2ccc(Br)cc2Br)s1,inconclusive: -62.3%
6,O=C(Nc1cccc(S(=O)(=O)Nc2ccc(Cl)cc2)c1)c1ccc2c(c1)OCCO2,inconclusive: -57.5%
7,COc1cc(C)c(Cl)cc1S(=O)(=O)NCc1ccccn1,inactive: 1.91%
8,CNC(=O)NCC12CC3CC(CC(C3)C1)C2,inconclusive: -65.4%
9,CC1CCc2nc(NC(=O)c3cc(C(C)(C)C)nn3C)sc2C1 (stereo not drawn),inactive: -2.18%
10,CN(C)c1ccc(N/C=C/C(=O)C(C)(C)C)cc1,inconclusive: -53.8%
11,COc1ccc(-c2cc(-c3nnc(COC(=O)CC4CCCC4)o3)c3ccccc3n2)cc1OC,inactive: -1.57%
12,Cc1ccccc1N1C(=O)CC(Sc2nnc(-c3ccccc3)o2)C1=O (stereo not drawn),inactive: 9.53%
13,S=C(Nc1ccc(Oc2ccccc2)cc1)NC1CCCCC1,inconclusive: -50.2%
14,COc1ccc(-c2csc(NC(=O)C3=NN(c4ccccc4)C(=O)CC3)n2)cc1,active: -78.2%
15,CCOc1ncccc1C(=O)Nc1ccc(C)c(S(=O)(=O)N2CCCCCC2)c1,inconclusive: -50.1%
16,CC1(C)O[C@@H]2[C@H](O1)[C@@H](CO)O[C@H]2n1c(N2CCCCC2)nc2c(N)ncnc21,inactive: -5.04%
17,O=C(Nc1ccc(Cl)cc1)c1cc2c(cc1O)[nH]c1ccccc12,active: -110%
18,COc1ccc(-n2c(=S)[nH]c3cc(C(=O)Nc4ccccc4OC)ccc3c2=O)c(OC)c1,inconclusive: -61.5%
19,Cc1ccc2occ(/C=N/NC(N)=S)c(=O)c2c1,inactive: 7.83%
20,O=C(Nc1ccccc1)Nc1ccc(Br)c(Cl)c1,inconclusive: -50.7%
21,CC(C)CN=Cc1c(O)c([N+](=O)[O-])cc2oc3c(c12)CCCC3,active: -85.2%
22,O=C(Nc1nccs1)c1nc(-c2ccccc2)n(-c2ccccc2)n1,inconclusive: -54%

row,SMILES,"activity change, negative = inhibition"
1,CCn1c(COC(=O)CNC(=O)c2cc(OC)c(OC)c(OC)c2)nc2cc(S(=O)(=O)N(C)C)ccc21,inconclusive: -57.7%
2,CCCc1ccc(-c2c(C)sc(NC(=O)c3ccnn3C)c2C#N)cc1,inconclusive: -63.1%
3,O=C(Nc1ccc(OC(F)F)cc1)Nc1cccc(C(F)(F)F)c1,inconclusive: -62.9%
4,COc1ccccc1NC(=O)CSc1nnc(C)s1,inactive: -5.75%
5,CCc1c(C)nc2ccc(Br)cc2c1SCCC#N,inactive: -14.7%
6,CC(C)N(Cc1nc(-c2ccc(Cl)cc2)no1)C(=O)CCCN1C(=O)c2ccccc2C1=O,inconclusive: -69.2%
7,Cc1cccc(NC(=O)c2ccc3c(c2)C(=O)N(c2ccccc2C)C3=O)n1,inconclusive: -65.4%
8,Fc1ccc2[nH]c3c(N4CCc5ccccc5C4)ncnc3c2c1,inconclusive: -52.7%
9,CCN(CC)S(=O)(=O)c1cccc(NC(=O)Nc2cccc(C(F)(F)F)c2)c1,active: -74.2%
10,Cc1cccc(/C=C/C(=O)c2cc(Br)ccc(=O)c2O)c1,active: -87.8%
11,O=C(N/N=C/c1cc(Cl)cc([N+](=O)[O-])c1O)c1ccc2c(c1)OCO2,inconclusive: -50.7%
12,COc1ccc(OC)c(C2C(C#N)=C(N)Oc3c2c(C)nn3-c2cccc(Cl)c2)c1 (stereo not drawn),inconclusive: -59.1%
13,CCCCNC(=O)c1sc(=S)n2c1[nH]c(=O)c1ccccc12,active: -73.9%
14,COc1ccc(-c2nn(-c3ccccc3)cc2/C=N/NC(=O)c2ccc(Br)o2)cc1,active: -94.8%
15,COc1ccc(-c2cn[nH]c2-c2ccc(OCc3ccc([N+](=O)[O-])cc3)cc2O)cc1OC,inconclusive: -64.9%
16,CC(C)(CNC(=O)C1c2ccccc2-c2ccccc21)N1CCOCC1,active: -82.2%
17,CN1C(=O)/C(=C/c2ccc(OCc3ccccc3F)cc2)NC1=S,active: -70.2%
18,CS(=O)c1ccc(-n2c(=O)n(Cc3ccccc3)c(=O)c3[nH]cnc32)cc1 (stereo not drawn),inconclusive: -56.4%
19,OC1CN=C2CCCc3c2n(c2ccc(Cl)cc32)C1 (stereo not drawn),inactive: -0.851%
20,CCC(=O)NNC(=O)CSc1nnc(-c2ccccc2)c(-c2ccccc2)n1,inactive: 21.8%
21,Cc1nc2sc(-c3ccccc3)cc2c(=O)n1-n1cccc1,inactive: -5.11%
22,O=C(Nc1ccc(SC(F)F)cc1)c1ccc2c(=O)n3c(nc2c1)CCC3,inconclusive: -51.7%

row,SMILES,"activity change, negative = inhibition"
1,CC(=O)N1c2ccccc2C2(C)C(C1(C)C)C2(Cl)Cl (stereo not drawn),inconclusive: -55%
2,Cc1ccc(C)c(OCC(=O)Nc2nc3ccc([N+](=O)[O-])cc3s2)c1C,inconclusive: -60.5%
3,COC(=O)Cc1c(C)[nH]n(-c2cc(Cl)cc(Cl)c2)c1=O,inconclusive: -52%
4,COc1ccc(C(=O)Nc2cccc(NC(=O)c3cccs3)c2)cc1OC,active: -130%
5,O=C(COc1ccccc1)NNc1c2ccccc2nc2ccccc12,inconclusive: -66.9%
6,CC(=O)N1N=C(c2cccc(NS(C)(=O)=O)c2)CC1c1ccc2c(c1)OCO2 (stereo not drawn),inconclusive: -53.5%
7,CCOC(=O)CCCCCC(=O)Nc1ccc2c(c1)CC(=O)N([C@H](C)CO)C[C@@H](C)[C@H](CN(C)Cc1ccc3c(c1)OCO3)O2,inconclusive: -51.5%
8,Cc1nc(SCC(=O)N2CCN(c3ccccc3)CC2)n[nH]1,active: -89.5%
9,Cc1cc(C(=O)CSc2nc3ccccc3[nH]2)c(C)n1CC1CCCO1 (stereo not drawn),inconclusive: -50.9%
10,N#C/C(=N\Nc1ccc(Cl)c(Cl)c1)C(=O)C1CC1,inconclusive: -55.7%
11,COc1ccccc1-n1cnc2cc(NS(=O)(=O)c3ccc(Br)cc3)ccc21,inconclusive: -60.2%
12,Cc1cccc(CSc2ccc(S(=O)(=O)N3CCCC3)cn2)c1,inconclusive: -57.7%
13,CN(CC(=O)Nc1ccc(F)cc1)C(=O)Cn1nnc(-c2ccccc2)n1,inconclusive: -51.6%
14,COc1cc(OC)cc(C(=O)NCc2n[nH]c(=S)n2-c2ccccc2)c1,inactive: 45.5%
15,COC(=O)C1=C(C)N(c2ccc(OC)cc2)C(C)=C(C(=O)OC)C1c1ccccc1,inactive: -0.73%
16,Oc1ccc(CN2CCN(c3ccccc3)CC2)c2cccnc12,inactive: -5.35%
17,CCn1nnc(NC(=O)c2cccnc2)n1,inactive: 15.3%
18,Cn1c(N=Nc2ccc(N3CCOCC3)cc2)[n+](C)c2ccccc21,inconclusive: -55.8%
19,CC(=O)Nc1ccc(OCc2ccc3c(c2)OCO3)cc1,inconclusive: -53%
20,Cc1ccc(C(=O)O)cc1NC(=S)NC(=O)C(c1ccccc1)c1ccccc1,inconclusive: -50.3%
21,O=C(Nc1ccccc1)c1ccccc1NS(=O)(=O)c1ccc(Cl)s1,inconclusive: -61.8%
22,Cc1nnc(SCC(N)=O)n1CCc1ccccc1,inconclusive: -52%

# Some of the entries above in a different format.
row | SMILES | activity change, negative = inhibition
10 | N#C/C(=N\Nc1ccc(Cl)c(Cl)c1)C(=O)C1CC1 | inconclusive: -55.7%
11 | COc1ccccc1-n1cnc2cc(NS(=O)(=O)c3ccc(Br)cc3)ccc21 | inconclusive: -60.2%
12 | Cc1cccc(CSc2ccc(S(=O)(=O)N3CCCC3)cn2)c1 | inconclusive: -57.7%

# The listing continues.

row,SMILES,"activity change, negative = inhibition"
1,Cc1ccc(C(=O)NCCSc2ccc(Cl)cc2)cc1S(=O)(=O)Nc1ccccc1,inconclusive: -50.6%
2,Clc1c(Cl)c(Cl)c2n[nH]nc2c1Cl,inconclusive: -64%
3,N#C/C(=N\Nc1ccc(S(=O)(=O)N2CCc3ccccc32)cc1)C(N)=S,inconclusive: -57.1%
4,CC(Sc1nnc(-c2cccs2)n1Cc1ccccc1)C(=O)NCc1ccc2c(c1)OCO2 (stereo not drawn),inconclusive: -53.7%
5,Cc1c(C(=O)Nc2ccc(Cl)cc2)c2ccccn2c1C(=O)c1ccc(F)cc1,inactive: 21.4%
6,CC1C(=O)N2CCCc3cc(S(=O)(=O)N4CCN(c5ccccc5F)CC4)cc1c32 (stereo not drawn),inactive: 43.1%
7,Cc1ccc(S(=O)(=O)N2CCCCC2)cc1NC(=O)CNCc1ccco1,inactive: 37.6%
8,COc1cccc(N2CCN(c3ncnc4c3[nH]c3ccc(F)cc34)CC2C)c1 (stereo not drawn),active: -105%
9,Cc1ccc(OCc2cc(C(=O)NC3CCCCC3)no2)cn1,active: -109%
10,CC(C)(C)OC(=O)NCCCCCc1nnc(SCC(=O)Nc2cccc(Cl)c2)o1,inconclusive: -51.6%
11,COCCCn1c(CCC(=O)O)ccc1-c1cccs1,inactive: 4.23%
12,COc1ccccc1NS(=O)(=O)c1cc([N+](=O)[O-])ccc1N/N=C/c1c[nH]c2ccccc12,inconclusive: -63.1%
13,O=C(Nc1ccn(Cc2ccccc2F)n1)c1ccc(COc2ccc(Br)cc2)cc1,inconclusive: -62.1%
14,O=C(O)CCSc1ncnc2sc(-c3ccccc3)cc12,inactive: -14.3%
15,Cc1sc2ncnc(N3CCC(C(=O)Nc4ccc(Br)cc4Br)CC3)c2c1C,inconclusive: -55.3%
16,Cc1ccc(C(=O)Nc2ccccc2-c2ccccc2)cc1S(=O)(=O)Nc1ccccc1,inconclusive: -61.3%
17,COc1ccc(-c2csc(N(CCCN(C)C)C(=O)c3ccccc3C)n2)cc1,inconclusive: -50.2%
18,CC(C)(C)c1cn(-c2ccc(F)cc2)c(=S)[nH]1,inactive: -5.93%
19,O=C(Nc1nc(-c2cc3ccccc3o2)cs1)c1ccc(S(=O)(=O)N2CCCC2)cc1,inconclusive: -52.4%
20,COc1ccc(C2c3ccsc3CCN2C(=O)NC(C)(C)C)cc1 (stereo not drawn),inactive: -2.44%
21,COc1ccc2cc(/C=C3\SC(=S)NC3=O)c(N3CCOCC3)nc2c1,active: -80.3%
22,CC(C)C(=O)Nc1nnc(S(=O)(=O)N(C)c2ccc(Cl)cc2)s1,inconclusive: -58.9%
